# Experimental data published in patent US7964629B2, “Inhibitors of isoprenylcysteine carboxyl methyltransferase” (Duke Universtiy, priority 2005, dated 2011).
# By UniProt entry, the sequences of proteins in these tests, tags left out.
# UniProt O60725, whole entry: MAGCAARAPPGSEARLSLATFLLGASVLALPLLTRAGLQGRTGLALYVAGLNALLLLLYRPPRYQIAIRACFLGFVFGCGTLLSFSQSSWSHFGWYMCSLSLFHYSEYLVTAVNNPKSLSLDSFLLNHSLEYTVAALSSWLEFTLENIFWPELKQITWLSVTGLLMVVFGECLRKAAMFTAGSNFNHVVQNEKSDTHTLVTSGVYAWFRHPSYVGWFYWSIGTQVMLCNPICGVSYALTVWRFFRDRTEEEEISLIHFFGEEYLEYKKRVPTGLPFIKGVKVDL
# Read-outs that look alike come from different tables or passages of the source. Structures were worked out from names or drawings and are uncertain.
# Target: recombinant human Icmt (Homo sapiens, UniProt O60725)
# Experiment: Icmt assay: [3H]methyl incorporation from [3H]AdoMet into BFC
# Type: biochemical
structure (smiles),measurement,setting,value
"CCCCCCCCn1cc(CC(N)=O)c2cc(-c3cccc(C)c3)ccc21 [cysmethynil, 2-[5-(3-methylphenyl)-1-octyl-1H-indol-3-yl]acetamide]",IC50,"Table 2, no pre-incubation",3 µM
same,IC50,"read-out: IC50 pre-inc, Table 2, pre-incubation of enzyme with inhibitor",< 0.3 µM
